Our source for the binding values is patent US20210171970A1 (CURATORS OF THE UNIVERSITY OF MISSOURI, published 2021).

The target of assay [1] is T1, BADC3 (Single hybrid motif protein, AT3G15690), Arabidopsis thaliana (Arabidopsis thaliana).
T1 sequence: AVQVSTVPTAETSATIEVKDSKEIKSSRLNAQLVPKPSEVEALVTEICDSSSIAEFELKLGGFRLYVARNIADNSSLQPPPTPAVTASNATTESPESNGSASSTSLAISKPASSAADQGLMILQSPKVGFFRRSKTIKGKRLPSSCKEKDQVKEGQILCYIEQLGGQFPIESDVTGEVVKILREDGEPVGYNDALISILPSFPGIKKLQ
The assay can be described thus: intact mass analysis.

Assay [2] has the same target. The assay can be described thus: intact mass analysis; non-reducing SDS-PAGE (monomer and dimer band, dimer lost with DTT).
Assay [3] addresses T2, biotin carboxylase (BC) subunit of hetACCase, AT5G35360, Arabidopsis thaliana (Arabidopsis thaliana) (UniProt O04983).
T2 sequence (looked up): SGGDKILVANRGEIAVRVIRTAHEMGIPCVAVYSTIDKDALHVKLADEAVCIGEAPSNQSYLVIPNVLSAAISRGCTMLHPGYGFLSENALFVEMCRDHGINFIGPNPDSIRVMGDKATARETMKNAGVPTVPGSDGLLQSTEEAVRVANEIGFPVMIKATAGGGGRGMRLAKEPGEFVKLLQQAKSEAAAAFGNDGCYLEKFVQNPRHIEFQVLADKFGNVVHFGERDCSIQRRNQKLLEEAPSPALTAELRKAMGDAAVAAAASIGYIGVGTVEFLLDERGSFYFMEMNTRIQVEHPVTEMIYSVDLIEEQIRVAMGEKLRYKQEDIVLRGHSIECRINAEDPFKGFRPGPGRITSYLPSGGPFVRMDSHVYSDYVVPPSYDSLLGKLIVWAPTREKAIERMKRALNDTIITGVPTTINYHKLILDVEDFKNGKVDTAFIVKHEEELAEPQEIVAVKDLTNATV
The assay can be described thus: co-expression in E. coli, Ni-NTA co-purification.

The target in assay [4] is BADC1 (biotin/lipoyl attachment domain-containing protein, AT3G56130), Arabidopsis thaliana (Arabidopsis thaliana). In words: intact mass analysis.
Assay [5] has the same target. In words: intact mass analysis; non-reducing SDS-PAGE (monomer and dimer band, dimer lost with DTT).
Assay [6] addresses T3, BADC2 (Single hybrid motif protein, AT1G52670), Arabidopsis thaliana (Arabidopsis thaliana).
T3 sequence: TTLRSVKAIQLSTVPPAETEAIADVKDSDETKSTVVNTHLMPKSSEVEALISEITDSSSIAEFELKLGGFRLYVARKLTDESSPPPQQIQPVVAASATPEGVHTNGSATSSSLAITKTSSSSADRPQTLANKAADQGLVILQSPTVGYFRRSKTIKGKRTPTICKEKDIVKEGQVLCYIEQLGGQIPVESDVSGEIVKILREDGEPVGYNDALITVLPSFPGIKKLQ
The assay can be described thus: yeast two-hybrid, strain AH109.

The target in assay [7] is T1, BADC3 (Single hybrid motif protein, AT3G15690), Arabidopsis thaliana (Arabidopsis thaliana). The assay can be described thus: yeast two-hybrid, strain AH109.

Results are given in words; binding and its absence hold for the method and conditions named. For some assays here: In cells and extracts the contact can be indirect. Some results given as binding are weak or reduced against the parent protein; the word gives no strength.

B1: BADC3 (Single hybrid motif protein, AT3G15690), Arabidopsis thaliana (protein)
chain: T1 sequence
B1: the binding result in assay [1], in assay [2] and in assay [3] was “binds” each time.

B2: BADC1 (biotin/lipoyl attachment domain-containing protein, AT3G56130), Arabidopsis thaliana (protein)
chain: AKAAKSSTTTISDGSSDASVSDGKKTVRRITFPKEVEALVHEMCDETEVAVLQLKVGDFEMNLKRKIGAATNPIPVADISPTVAPPIPSEPMNKSASSAPSPSQAKPSSEKVSPFKNTSYGKPAKLAALEASGSTNYVLVTSPAVGKFQRSRTVKGKKQSPSCKEGDAIKEGQVIGYLHQLGTELPVTSDVAGEVLKLLSDDGDSVGYGDPLVAVLPSFHDINIQ
Take B2: the binding result in assay [4], in assay [5], in assay [6] and in assay [7] was “binds” in each case.

B3: BADC2 (Single hybrid motif protein, AT1G52670), Arabidopsis thaliana (other)
chain: T3 sequence
notes: Native protein in chloroplast lysate for the co-IPs; Recombinant and two-hybrid constructs lack the TargetP-predicted transit peptide; His-tagged or untagged in co-expression; also called AtBADC2; NP_564612.1
Turning to B3, the binding result in assay [7] is reported as “binds”.
